# Screening data

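293T-iDUX4 dual-reporter cells; luminescence of the tet-on Italica luciferase control is read after 24 h. The test concentration is not given here. Percent change in the Italica control signal; more negative values mean stronger inhibition, which points to nonspecific, tet-on or cytotoxic effects.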

Values are in %. Common to all entries: measured here: Italica tet-on control reporter. This is a side read-out of the assay, for part of the compounds, not drawn at random.

* COc1ccc(-c2ccc3c(c2)[C@H]2[C@H](CCN2S(=O)(=O)c2ccccc2C)[C@H](CO)N3C)cc1 : activity change -48.55%
* C[C@@H](NC(=O)C[C@H]1C[C@H]2c3cc(NC(=O)c4cccnc4)ccc3O[C@H]2[C@H](CO)O1)c1ccccc1 : activity change -6.49%
* O=C(C[C@@H]1CC[C@H]2[C@@H](COC[C@@H](O)CN2Cc2cccc(Cl)c2)O1)NCC1CCCCC1 : activity change -12.16%
* OC[C@H]1[C@@H](c2ccc(-c3cccc(F)c3)cc2)[C@@H]2CN(CCC(F)(F)F)CCCCN12 : activity change -7.965%
* OC[C@H]1[C@@H](c2ccc(C#Cc3ccccc3)cc2)[C@@H]2CN(CC3CCOCC3)CCCCN12 : activity change -0.4144%
* CCC(=O)N1[C@H](CO)[C@H](c2ccc(-c3cccnc3)cc2)[C@@H]1CN(C)C(C)=O : activity change -1.032%
* CN1c2ccc(-c3ccccc3)cc2[C@H]2[C@H](CCN2C(=O)Cc2ccccc2)[C@H]1CO : activity change -26.91%
* C[C@@H]1CN([C@@H](C)CO)C(=O)c2c(c3ccccc3n2C)-c2ccccc2CO[C@@H]1CN(C)Cc1cccc(F)c1 : activity change -8.647%
* COc1ccc2c3c([nH]c2c1)[C@@H](CO)N(C(=O)NC(C)C)CC31CN(Cc2ccc(F)cc2)C1 : activity change -32.1%
* C/C=C/c1ccc([C@@H]2[C@H](CO)N(CCC(F)(F)F)C23CN(C(=O)CC2CC2)C3)cc1 : activity change -1.328%
* CCS(=O)(=O)N1CC2(CN(Cc3ccccc3F)[C@H](CO)c3c2c2ccc(OC)cc2n3C)C1 : activity change -14.75%
* C[C@H](NC(=O)C[C@H]1CC[C@@H]2[C@H](COC[C@@H](O)CN2Cc2ccc(C(F)(F)F)cc2)O1)c1ccccc1 : activity change -27.22%
* N#Cc1ccc(-c2ccc(C3[C@@H]4CN(S(=O)(=O)c5ccccc5F)C[C@H]3N4)cc2)cc1 (stereo partly drawn) : activity change -25.12%
* CN(C)C(=O)c1cccc(-c2ccc3c(c2)[C@@H]2[C@@H](CCN2Cc2nccs2)[C@@H](CO)N3)c1 : activity change -1.736%
* COCCN(C[C@H]1[C@H](c2ccccc2)[C@@H](CO)N1C(=O)C1CCC1)C(C)=O : activity change 1.134%
* COc1cccc(CN2CC3(C2)CN(C(=O)C2CC2)[C@@H](CO)c2c3c3ccc(OC)cc3n2C)c1 : activity change -21.86%
* COc1ccc2c3c(n(C)c2c1)[C@@H](CO)N(CC1CCOCC1)CC31CN(C(=O)c2cccc(F)c2)C1 : activity change -16.38%
* CCC(=O)N1CC2(C1)CN(Cc1cc(F)ccc1F)[C@@H](CO)c1[nH]c3cc(OC)ccc3c12 : activity change -76.07%
* Cc1ccc(S(=O)(=O)N(C)C[C@@H]2OCCCC[C@H](C)Oc3ccc(NC(=O)C4CCCCC4)cc3C(=O)N([C@@H](C)CO)C[C@@H]2C)cc1 : activity change -46.35%
* COc1ccccc1NC(=O)N1CCCCN2[C@H](CO)[C@H](c3ccc(-c4cccc(C#N)c4)cc3)[C@@H]2C1 : activity change -14%
* O=C(C[C@@H]1CC[C@H]2[C@@H](COC[C@H](O)CN2C(=O)Nc2ccc(Cl)cc2)O1)NCC1CCCCC1 : activity change -5.793%
* C[C@@H](NC(=O)C[C@@H]1C[C@H]2c3cc(NC(=O)Nc4ccccc4F)ccc3O[C@H]2[C@H](CO)O1)c1ccccc1 : activity change -5.608%
* N#C[C@@H]1[C@H](c2ccccc2C2=CCCC2)[C@@H](CO)N1C(=O)Cc1ccncc1 : activity change -15.26%
* COc1ccc(C#Cc2ccc([C@H]3[C@H]4CN(C)CCCCN4[C@H]3CO)cc2)cc1 : activity change -1.422%
* CCC(=O)N1CC2(CN(Cc3ccccc3Cl)C2)c2c([nH]c3cc(OC)ccc23)[C@H]1CO : activity change -7.875%
* O=C(Cc1ccccc1)N1CC[C@@H]2[C@H](CO)Nc3ccc(-c4cccc(F)c4)cc3[C@@H]21 : activity change -28.13%
* N#Cc1cccc(-c2ccc([C@@H]3[C@H]4CN(C(=O)Nc5cccc(F)c5)CCCCN4[C@H]3CO)cc2)c1 : activity change -44.22%
* O=C(C[C@@H]1C[C@@H]2c3cc(NC(=O)c4ccc5c(c4)OCO5)ccc3O[C@@H]2[C@@H](CO)O1)NCc1ccc(Oc2ccccc2)cc1 : activity change -95.06%
* CCC(=O)N1C[C@H](C)[C@H](OC)CN(C)C(=O)c2cc(NC(=O)Nc3ccc(Cl)cc3)ccc2OC[C@@H]1C : activity change -16.13%
* COc1ccc2c3c([nH]c2c1)[C@@H](CO)N(C)CC31CCN(S(=O)(=O)c2cccc(F)c2)CC1 : activity change -5.304%
* CCNC(=O)[C@@H]1[C@@H](CO)[C@@H]2Cn3c(ccc(-c4ccccc4F)c3=O)[C@@H]2N1CC1CC1 : activity change -0.1447%
* C[C@@H]1CN([C@@H](C)CO)C(=O)c2c(c3ccccc3n2C)-c2ccccc2CO[C@@H]1CN(C)Cc1cccc2c1OCCCO2 : activity change 1.375%
* C/C=C/c1ccc([C@@H]2[C@@H](CO)N3C(=O)CN(S(=O)(=O)c4ccccc4)C[C@@H]23)cc1 : activity change -9.963%
* O=C(Nc1ccccc1F)N1CC(=O)N2[C@@H](CO)[C@@H](c3ccc(C#CC4CC4)cc3)[C@@H]2C1 : activity change -14.33%

2 of the entries, repeated:

With O=C(C[C@@H]1C[C@@H]2c3cc(NC(=O)c4ccc5c(c4)OCO5)ccc3O[C@@H]2[C@@H](CO)O1)NCc1ccc(Oc2ccccc2)cc1 the assay gave activity change -95.06%.
With N#C[C@@H]1[C@H](c2ccccc2C2=CCCC2)[C@@H](CO)N1C(=O)Cc1ccncc1 the assay gave activity change -15.26%.

From PubChem BioAssay record AID1224904 (Broad Institute, 2016).